PubChem BioAssay AID1259254 | NCATS | 2017
Assay: 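Genome-wide screen for genes that prevent DNA re-replication in cancer cells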 (primary screen). Cells: human HCT116 colorectal cancer cells. Reagents: single siRNA against human genes. Duration: 3 days. Detection: 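Nuclei stained with Hoechst and imaged; cell-cycle phase assigned by DNA content; G2 share scaled per plate, non-targeting siRNA 0%, GMNN siRNA 100%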. Reading the numbers: G2 robust z-score and G2 cells, % of GMNN control: higher = more G2 cells, more excess DNA replication; raw share of cells in G2: higher = larger share of cells with G2 DNA content. Active means: 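An siRNA counts as active if its G2 robust z-score lies at least 5 MADs above the screen median; here such calls match roughly 38% of GMNN control or more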.
This is one part, drawn at random, of about 59,000 reagents. In the full data, about 1,550 (2.6%) were called active. 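G2 share is only a proxy for re-replication; each gene was hit by three separate siRNAs, and active genes were retested.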 Raw values vary from plate to plate and are shown uncorrected. The numbers tell different reagents against one gene apart. Reagent sequences are not shown. Not stated in the record: the amount of reagent.

gene symbol | siRNA no. | G2 robust z-score | G2 cells, % of GMNN control | raw share of cells in G2 (%) | Outcome
H6PD | 1 | 0.0769 | 3.51 | 4.4 | inactive
H6PD | 2 | 3.78 | 29.6 | 16.4 | inactive
H6PD | 3 | 0.482 | 6.36 | 7.33 | inactive
ZNF558 | 1 | -0.618 | -1.38 | 2.62 | inactive
ZNF558 | 2 | -0.528 | -0.746 | 2.91 | inactive
ZNF558 | 3 | 1.7 | 14.9 | 8.76 | inactive
GALNT10 | 1 | -0.458 | -0.252 | 6.32 | inactive
GALNT10 | 2 | 0.226 | 4.56 | 6.07 | inactive
GALNT10 | 3 | -0.482 | -0.422 | 4.16 | inactive
ZBTB4 | 1 | 0.718 | 8.02 | 7.51 | inactive
ZBTB4 | 2 | 1.63 | 14.5 | 11.4 | inactive
ZBTB4 | 3 | -1.23 | -5.69 | 1.23 | inactive
APOLD1 | 1 | 0.275 | 4.9 | 5.74 | inactive
APOLD1 | 2 | 3 | 24.1 | 10.6 | inactive
APOLD1 | 3 | -0.672 | -1.76 | 1.87 | inactive
MICOS13 | 1 | 1.26 | 11.8 | 8.63 | inactive
MICOS13 | 2 | 0.421 | 5.93 | 4.98 | inactive
MICOS13 | 3 | -0.409 | 0.0896 | 2.61 | inactive
HSD17B10 | 1 | -0.326 | 0.674 | 4.45 | inactive
HSD17B10 | 2 | 3.01 | 24.1 | 13.8 | inactive
HSD17B10 | 3 | 2.71 | 22 | 14.1 | inactive
ACTL7A | 1 | -0.6 | -1.25 | 5.98 | inactive
ACTL7A | 2 | -1.19 | -5.4 | 3.35 | inactive
ACTL7A | 3 | -0.914 | -3.46 | 2.72 | inactive
ZNF469 | 1 | -0.189 | 1.64 | 4.65 | inactive
ZNF469 | 2 | 1.08 | 10.6 | 6.6 | inactive
ZNF469 | 3 | 2.06 | 17.5 | 7.7 | inactive
PRY | 1 | 1.24 | 11.7 | 10.3 | inactive
PRY | 2 | -0.932 | -3.59 | 2.47 | inactive
PRY | 3 | -0.939 | -3.64 | 2.06 | inactive
ADIPOQ | 1 | 0.543 | 6.78 | 6.79 | inactive
ADIPOQ | 2 | 0.264 | 4.83 | 6.07 | inactive
ADIPOQ | 3 | -0.398 | 0.164 | 5.67 | inactive
IGF2BP1 | 1 | -1.27 | -5.99 | 3.09 | inactive
IGF2BP1 | 2 | 0.0265 | 3.15 | 4.86 | inactive
IGF2BP1 | 3 | 0.86 | 9.02 | 10 | inactive
MFAP2 | 1 | 0.131 | 3.89 | 6.63 | inactive
MFAP2 | 2 | 0.481 | 6.35 | 6.73 | inactive
MFAP2 | 3 | 2.11 | 17.8 | 9.79 | inactive
CST9LP1 | 1 | 0.237 | 4.63 | 4.88 | inactive
CST9LP1 | 2 | -0.436 | -0.0985 | 2.75 | inactive
CST9LP1 | 3 | 0.317 | 5.2 | 5.59 | inactive
CACNA2D1 | 1 | 0.169 | 4.16 | 6.8 | inactive
CACNA2D1 | 2 | -0.866 | -3.13 | 3.72 | inactive
CACNA2D1 | 3 | 0.454 | 6.16 | 6.78 | inactive
MAFF | 1 | -0.742 | -2.25 | 3.44 | inactive
MAFF | 2 | -1.13 | -4.97 | 3.91 | inactive
MAFF | 3 | -0.344 | 0.547 | 4.17 | inactive

Part of the list above, set out differently:
gene symbol	siRNA no.	G2 robust z-score	G2 cells, % of GMNN control	raw share of cells in G2 (%)	Outcome
HSD17B10	2	3.01	24.1	13.8	inactive
HSD17B10	3	2.71	22	14.1	inactive
ACTL7A	1	-0.6	-1.25	5.98	inactive
ACTL7A	2	-1.19	-5.4	3.35	inactive
